Consider one substance from publication PMC11396517 (Molecules, 2024).

This data set can be described thus: general procedure: Fmoc solid-phase peptide synthesis; 2-Chlorotrityl chloride resin; DIPCDI/HOBt. To be noted: whole synthesis.

HBED-CC-(D-Glu-L-Glu)7: the isolated yield was determined as 1%.
